Among all 52,000 sequences or so, about 210 (0.4%) were called active.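 The calls were made as follows: active = gene whose silencing raises cell survival under the drug, median off-target-corrected z-score across its silencing RNAs 2 or more; inactive = the rest.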 Some of the results follow.
Assay: Resistance to Poly (ADP-Ribose) Polymerase inhibitor: Gene Identification via Genome-wide siRNA Screen
Details: mouse BRCA2 R2336H ES cells, olaparib, CellTiter-Glo viability; active compounds read high
Outline: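 Genome-wide siRNA screen (3 siRNAs/gene, 20 nM) in mouse ES cells carrying hypomorphic BRCA2 R2336H; olaparib 500 nM added 48 h post-transfection, CellTiter-Glo viability 72 h later. Normalized to plate-median negative control; MAD z-scores, gene median, seed-adjusted.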
With GGUGGUCUAUUUCACCACGTT against Slc6a20 the z-score was inactive: 0.293.
In the case of GCAUGAGGAUUGCACUAGGTT against Shbg, the z-score is reported as inactive: 1.85.
For GGAUGUCAAGGACACAGUATT against Olfr73, the z-score was inactive: -0.894.
For “GGCCUACAUUUUAAUUCAGTT against 4632425D07Rik”, the z-score was inactive: 0.864.
With “GGACUGAAGAACUUGAAAGTT against 5730521E12Rik” the z-score was inactive: 0.245.
With GGAGCUGAGAACUAUUAGATT against Abr the z-score was inactive: 0.544.
In the case of GCCUGAUCGAUACGUGAUCTT against Gm964, the z-score is reported as inactive: 1.16.
With GGAGAAGGAACAAGAUAAATT against Sfrs12 the z-score was inactive: -2.27.
With “GGACCAGAUUGUGAUUGAUTT against B230118H07Rik” the z-score was inactive: 1.5.
For GGAAUUGGAUGUGAGCAACTT against Slitl2, the z-score was inactive: 1.3.
In the case of GGAUAUUGUCUUUGUAGAATT against Kap, the z-score is reported as inactive: 0.37.
For GCAUGUGACCUCGUCUUGCTT against Apbb2, the z-score was inactive: -0.741.
For GGAGAUUCAGUUCUUCAAUTT against Ndst2, the z-score was inactive: -0.274.
With CGUUCAACAACAGAGAAAATT against Scnn1g the z-score was inactive: -0.0181.
For “GGCUAUGCUGAUCUGAAGATT against 6330407D12Rik”, the z-score was inactive: -0.405.
For “CCUUGGUUUGCACACUCAGTT against 9130211I03Rik”, the z-score was inactive: -2.54.
In the case of CCACAGCCAAAUGCACAAGTT against Gm1631, the z-score is reported as inactive: -0.237.
For GGCAUGUGAAAUGUAUACCTT against Napb, the z-score was inactive: 0.686.
With GGCUCAUAAACGACAAAGGTT against Cxcl11 the z-score was inactive: 0.26.
With GGUCAAAUCUCAGAUGAAGTT against Kcnab1 the z-score was inactive: 0.455.
For GGAGUUUGAAGACUUUUUGTT against Pstpip2, the z-score was inactive: -0.32.
For CCAAGCAACACCACUCAUCTT against Centb2, the z-score was inactive: -0.144.
In the case of GGACUUGUUAUGGCCAUGCTT against Olfr1389, the z-score is reported as inactive: 1.11.
For GGAGGAAGACAUUGUGUGUTT against Tnfrsf11b, the z-score was inactive: -1.3.
In the case of GGAGGAAUCUCCAGAAGGUTT against Centg2, the z-score is reported as inactive: -0.482.
For GGAAAAACCAAGGUAGAGGTT against Prkcabp, the z-score was inactive: 0.734.
With “GGGUAAUAGGCACAGACCATT against 2410146L05Rik” the z-score was inactive: -1.3.
For “CGUGGUUGAACUUUGUCCGTT against 1110035L05Rik”, the z-score was inactive: 0.32.
With “GCUACAAGCUUUUUCAAUUTT against 6530402A20” the z-score was inactive: 1.23.

Reference: PubChem BioAssay AID1347423 (Functional Genomics Laboratory (NCATS/FGL), 2020)
